Results are given in words; binding and its absence hold for the method and conditions named. In cells and extracts the contact can be indirect. Some entries that bind do so weakly or less than the wild type. Where a sequence is shown, tags or fusion partners need not be part of it.

Amino acid sequences for entries named in this document (tags omitted).
UniProt P15682: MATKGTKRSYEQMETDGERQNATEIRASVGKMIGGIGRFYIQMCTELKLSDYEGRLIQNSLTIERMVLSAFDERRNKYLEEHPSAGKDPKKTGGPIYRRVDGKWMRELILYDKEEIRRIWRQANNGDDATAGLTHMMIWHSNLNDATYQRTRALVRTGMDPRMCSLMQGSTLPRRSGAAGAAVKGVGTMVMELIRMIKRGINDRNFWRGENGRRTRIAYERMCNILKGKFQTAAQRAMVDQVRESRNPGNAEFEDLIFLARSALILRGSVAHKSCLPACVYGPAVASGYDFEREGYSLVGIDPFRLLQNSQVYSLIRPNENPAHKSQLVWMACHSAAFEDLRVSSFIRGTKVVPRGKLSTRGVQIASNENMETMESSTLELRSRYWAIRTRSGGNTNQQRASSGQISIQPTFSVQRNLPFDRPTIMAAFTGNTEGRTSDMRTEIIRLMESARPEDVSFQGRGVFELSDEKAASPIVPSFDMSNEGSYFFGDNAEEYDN

In this assay the target is T1, Flag-TRIM14 (UniProt Q14142).
T1 sequence: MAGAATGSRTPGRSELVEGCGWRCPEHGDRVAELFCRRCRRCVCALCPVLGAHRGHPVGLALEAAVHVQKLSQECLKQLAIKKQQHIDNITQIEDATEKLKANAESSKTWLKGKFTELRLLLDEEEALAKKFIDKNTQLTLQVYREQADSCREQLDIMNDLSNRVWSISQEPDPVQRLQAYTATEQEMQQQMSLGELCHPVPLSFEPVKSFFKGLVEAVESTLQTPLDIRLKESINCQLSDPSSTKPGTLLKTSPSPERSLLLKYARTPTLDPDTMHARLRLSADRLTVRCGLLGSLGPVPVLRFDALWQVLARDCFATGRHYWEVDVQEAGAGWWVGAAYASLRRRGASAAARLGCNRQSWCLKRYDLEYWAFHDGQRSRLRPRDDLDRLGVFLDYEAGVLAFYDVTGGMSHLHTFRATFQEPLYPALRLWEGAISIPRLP
Briefly: co-IP.

GlucC-NP (from UniProt P15682 1-498): the binding entry is recorded as “binds”.

Values taken from PMC6401474.
